Our source for the binding values is publication PMC7246803.

Results are given in words; binding and its absence hold for the method and conditions named. Binding calls can cover weak binding; strength is not graded here. Sequences can lack the tags named with a protein. For some of these results: In cells and extracts the contact can be indirect.

Assay [1] deals with T1, BTB-A2.1 (AT5G41330), yeast two-hybrid fusion (Arabidopsis thaliana) (UniProt Q9FN67).
T1 sequence: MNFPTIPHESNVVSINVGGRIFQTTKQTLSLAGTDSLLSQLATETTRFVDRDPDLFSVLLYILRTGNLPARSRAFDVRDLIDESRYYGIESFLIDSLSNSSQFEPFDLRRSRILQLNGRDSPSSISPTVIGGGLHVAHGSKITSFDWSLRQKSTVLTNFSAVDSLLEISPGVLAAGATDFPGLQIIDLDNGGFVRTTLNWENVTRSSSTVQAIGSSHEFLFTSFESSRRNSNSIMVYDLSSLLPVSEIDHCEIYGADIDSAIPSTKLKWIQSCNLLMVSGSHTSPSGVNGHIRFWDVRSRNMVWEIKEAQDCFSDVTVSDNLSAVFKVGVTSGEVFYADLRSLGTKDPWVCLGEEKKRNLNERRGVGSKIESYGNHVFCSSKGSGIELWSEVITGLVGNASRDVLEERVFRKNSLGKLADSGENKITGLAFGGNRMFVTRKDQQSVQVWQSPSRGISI
Put plainly: two-hybrid; AD (pGADT7) and BD (pGBKT7) fusions co-transformed into yeast strain AH109; growth on SD-WL or SD-WLHA at dilutions 10^-1, 10^-2, 10^-3, 30 °C, 3-5 days.

Assay [2] addresses BTB-A2.2-cYFP (Arabidopsis thaliana). Put plainly: split reporter; BiFC with cYFP and nYFP fusions in Nicotiana benthamiana leaves infiltrated with A. tumefaciens GV3101; confocal microscopy 48-72 h after infiltration.
In assay [3] the target is BTB-A2.2 (AT3G09030), yeast two-hybrid fusion (Arabidopsis thaliana). Briefly: two-hybrid; AD (pGADT7) and BD (pGBKT7) fusions co-transformed into yeast strain AH109; growth on SD-WL or SD-WLHA at dilutions 10^-1, 10^-2, 10^-3, 30 °C, 3-5 days.

Turning to “BTB-A2.2 (AT3G09030), yeast two-hybrid fusion (Arabidopsis thaliana)”, the binding result in assay [1] is “binds”.

B1: SnRK2.3-nYFP (enzyme, UniProt Q39193 1-361)
chain: MDRAPVTTGPLDMPIMHDSDRYDFVKDIGSGNFGVARLMRDKLTKELVAVKYIERGDKIDENVQREIINHRSLRHPNIVRFKEVILTPTHLAIIMEYASGGELYERICNAGRFSEDEARFFFQQLLSGVSYCHSMQICHRDLKLENTLLDGSPAPRLKICDFGYSKSSVLHSQPKSTVGTPAYIAPEVLLRQEYDGKIADVWSCGVTLYVMLVGAYPFEDPEEPRDYRKTIQRILSVKYSIPDDIRISPECCHLISRIFVADPATRISIPEIKTHSWFLKNLPADLMNESNTGSQFQEPEQPMQSLDTIMQIISEATIPAVRNRCLDDFMTDNLDLDDDMDDFDSESEIDIDSSGEIVYAL
B1: the binding entry in assay [2] was “binds”.

B2: SnRK2.3, yeast two-hybrid fusion (enzyme, UniProt Q39193 1-361)
chain: MDRAPVTTGPLDMPIMHDSDRYDFVKDIGSGNFGVARLMRDKLTKELVAVKYIERGDKIDENVQREIINHRSLRHPNIVRFKEVILTPTHLAIIMEYASGGELYERICNAGRFSEDEARFFFQQLLSGVSYCHSMQICHRDLKLENTLLDGSPAPRLKICDFGYSKSSVLHSQPKSTVGTPAYIAPEVLLRQEYDGKIADVWSCGVTLYVMLVGAYPFEDPEEPRDYRKTIQRILSVKYSIPDDIRISPECCHLISRIFVADPATRISIPEIKTHSWFLKNLPADLMNESNTGSQFQEPEQPMQSLDTIMQIISEATIPAVRNRCLDDFMTDNLDLDDDMDDFDSESEIDIDSSGEIVYAL
Take B2: the binding result in assay [3] is reported as “binds”.

B3: SnRK2.2, yeast two-hybrid fusion (enzyme, UniProt Q39192 1-362)
chain: MDPATNSPIMPIDLPIMHDSDRYDFVKDIGSGNFGVARLMTDRVTKELVAVKYIERGEKIDENVQREIINHRSLRHPNIVRFKEVILTPSHLAIVMEYAAGGELYERICNAGRFSEDEARFFFQQLISGVSYCHAMQICHRDLKLENTLLDGSPAPRLKICDFGYSKSSVLHSQPKSTVGTPAYIAPEILLRQEYDGKLADVWSCGVTLYVMLVGAYPFEDPQEPRDYRKTIQRILSVTYSIPEDLHLSPECRHLISRIFVADPATRITIPEITSDKWFLKNLPGDLMDENRMGSQFQEPEQPMQSLDTIMQIISEATIPTVRNRCLDDFMADNLDLDDDMDDFDSESEIDVDSSGEIVYAL
With B3, the binding entry in assay [3] is “no binding”.
